Reference: the supplement of paper PMC10849652
Some of the results follow.

By UniProt entry, the sequences of proteins in these tests, tags left out. Where a name states a change or a piece, a line headed by the entry shows the natural chain unless it says otherwise.
UniProt Q5TKA1: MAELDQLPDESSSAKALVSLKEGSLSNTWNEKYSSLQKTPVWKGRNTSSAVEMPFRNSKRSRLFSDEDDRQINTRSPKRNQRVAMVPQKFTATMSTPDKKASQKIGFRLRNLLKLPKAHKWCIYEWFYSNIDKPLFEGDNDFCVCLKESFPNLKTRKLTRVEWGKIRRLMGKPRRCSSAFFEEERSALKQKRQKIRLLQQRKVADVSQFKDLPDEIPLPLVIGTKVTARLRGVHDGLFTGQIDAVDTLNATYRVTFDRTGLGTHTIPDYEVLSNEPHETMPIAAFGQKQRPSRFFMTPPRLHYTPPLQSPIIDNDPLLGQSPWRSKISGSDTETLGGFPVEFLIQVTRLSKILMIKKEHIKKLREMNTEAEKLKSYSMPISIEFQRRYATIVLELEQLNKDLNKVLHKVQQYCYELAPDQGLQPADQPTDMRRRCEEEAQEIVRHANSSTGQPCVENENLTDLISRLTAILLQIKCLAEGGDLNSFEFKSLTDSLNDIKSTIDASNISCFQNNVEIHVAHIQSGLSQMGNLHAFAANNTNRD
UniProt P50851: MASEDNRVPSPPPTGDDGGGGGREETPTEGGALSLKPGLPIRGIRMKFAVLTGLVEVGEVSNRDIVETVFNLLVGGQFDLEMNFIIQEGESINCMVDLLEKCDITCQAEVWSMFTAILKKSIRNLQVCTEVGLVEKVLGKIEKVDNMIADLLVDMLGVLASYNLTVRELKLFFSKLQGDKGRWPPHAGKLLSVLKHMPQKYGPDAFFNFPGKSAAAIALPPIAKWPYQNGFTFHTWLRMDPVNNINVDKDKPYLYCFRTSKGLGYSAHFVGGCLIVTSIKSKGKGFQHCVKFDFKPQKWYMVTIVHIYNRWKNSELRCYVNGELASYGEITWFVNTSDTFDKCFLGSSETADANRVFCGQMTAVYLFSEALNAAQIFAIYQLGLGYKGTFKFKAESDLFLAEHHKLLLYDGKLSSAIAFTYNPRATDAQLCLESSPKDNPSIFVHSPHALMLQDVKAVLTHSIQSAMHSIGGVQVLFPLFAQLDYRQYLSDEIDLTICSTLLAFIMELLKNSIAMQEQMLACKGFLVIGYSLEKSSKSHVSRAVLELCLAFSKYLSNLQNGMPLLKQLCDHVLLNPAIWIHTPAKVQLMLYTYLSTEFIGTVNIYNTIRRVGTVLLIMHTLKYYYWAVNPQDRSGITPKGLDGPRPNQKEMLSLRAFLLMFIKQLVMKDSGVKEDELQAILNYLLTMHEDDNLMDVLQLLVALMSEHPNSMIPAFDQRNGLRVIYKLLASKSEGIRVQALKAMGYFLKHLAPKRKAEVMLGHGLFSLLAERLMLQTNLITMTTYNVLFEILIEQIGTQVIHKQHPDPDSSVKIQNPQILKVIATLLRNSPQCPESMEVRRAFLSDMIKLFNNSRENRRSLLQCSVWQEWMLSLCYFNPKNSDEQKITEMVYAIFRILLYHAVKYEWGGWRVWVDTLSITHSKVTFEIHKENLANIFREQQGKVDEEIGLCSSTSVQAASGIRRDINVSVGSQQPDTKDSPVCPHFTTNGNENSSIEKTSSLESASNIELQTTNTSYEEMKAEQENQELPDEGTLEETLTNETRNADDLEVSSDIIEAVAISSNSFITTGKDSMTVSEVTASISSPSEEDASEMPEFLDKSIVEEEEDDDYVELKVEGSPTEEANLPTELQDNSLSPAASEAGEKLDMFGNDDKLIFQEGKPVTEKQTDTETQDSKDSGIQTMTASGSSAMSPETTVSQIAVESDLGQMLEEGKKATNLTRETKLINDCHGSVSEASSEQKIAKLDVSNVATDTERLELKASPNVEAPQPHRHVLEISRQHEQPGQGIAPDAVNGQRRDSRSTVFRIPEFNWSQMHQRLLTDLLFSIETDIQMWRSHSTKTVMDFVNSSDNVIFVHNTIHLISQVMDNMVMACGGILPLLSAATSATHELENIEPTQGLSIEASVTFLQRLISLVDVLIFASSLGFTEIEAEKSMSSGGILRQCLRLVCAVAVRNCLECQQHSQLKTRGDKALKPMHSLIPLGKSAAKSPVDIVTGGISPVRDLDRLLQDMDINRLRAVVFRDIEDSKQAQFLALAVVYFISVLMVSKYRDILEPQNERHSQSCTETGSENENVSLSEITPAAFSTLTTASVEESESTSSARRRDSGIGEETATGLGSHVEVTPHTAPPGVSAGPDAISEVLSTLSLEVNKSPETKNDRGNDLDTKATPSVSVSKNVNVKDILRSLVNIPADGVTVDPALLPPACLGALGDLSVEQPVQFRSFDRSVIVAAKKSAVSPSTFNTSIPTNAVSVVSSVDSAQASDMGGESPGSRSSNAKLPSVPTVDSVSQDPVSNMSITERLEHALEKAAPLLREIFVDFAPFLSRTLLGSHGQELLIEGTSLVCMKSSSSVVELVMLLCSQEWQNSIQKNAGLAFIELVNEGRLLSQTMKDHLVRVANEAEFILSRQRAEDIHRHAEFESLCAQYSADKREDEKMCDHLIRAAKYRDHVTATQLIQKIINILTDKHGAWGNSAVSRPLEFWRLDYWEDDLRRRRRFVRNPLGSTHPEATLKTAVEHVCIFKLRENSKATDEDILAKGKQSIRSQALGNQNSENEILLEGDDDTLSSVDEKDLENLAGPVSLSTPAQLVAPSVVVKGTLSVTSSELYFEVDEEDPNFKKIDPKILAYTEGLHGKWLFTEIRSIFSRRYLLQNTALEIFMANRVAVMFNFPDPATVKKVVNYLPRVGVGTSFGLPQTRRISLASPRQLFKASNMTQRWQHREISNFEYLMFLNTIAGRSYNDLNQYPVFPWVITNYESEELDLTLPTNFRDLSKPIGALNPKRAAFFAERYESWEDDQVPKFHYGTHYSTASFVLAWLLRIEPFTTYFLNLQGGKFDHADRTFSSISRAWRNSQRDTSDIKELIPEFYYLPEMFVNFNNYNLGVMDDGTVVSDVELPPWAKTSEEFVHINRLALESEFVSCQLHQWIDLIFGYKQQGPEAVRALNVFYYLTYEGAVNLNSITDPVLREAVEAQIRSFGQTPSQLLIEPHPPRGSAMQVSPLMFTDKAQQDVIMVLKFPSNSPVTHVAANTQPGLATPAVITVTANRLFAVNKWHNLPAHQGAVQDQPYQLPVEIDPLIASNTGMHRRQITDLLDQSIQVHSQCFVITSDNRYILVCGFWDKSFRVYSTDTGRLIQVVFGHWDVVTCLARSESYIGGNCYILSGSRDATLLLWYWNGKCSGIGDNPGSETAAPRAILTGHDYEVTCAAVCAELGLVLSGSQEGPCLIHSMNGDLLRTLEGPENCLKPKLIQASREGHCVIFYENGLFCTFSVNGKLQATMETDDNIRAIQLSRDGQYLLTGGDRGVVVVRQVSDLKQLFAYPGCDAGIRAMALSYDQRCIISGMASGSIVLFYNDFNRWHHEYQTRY
UniProt P49917: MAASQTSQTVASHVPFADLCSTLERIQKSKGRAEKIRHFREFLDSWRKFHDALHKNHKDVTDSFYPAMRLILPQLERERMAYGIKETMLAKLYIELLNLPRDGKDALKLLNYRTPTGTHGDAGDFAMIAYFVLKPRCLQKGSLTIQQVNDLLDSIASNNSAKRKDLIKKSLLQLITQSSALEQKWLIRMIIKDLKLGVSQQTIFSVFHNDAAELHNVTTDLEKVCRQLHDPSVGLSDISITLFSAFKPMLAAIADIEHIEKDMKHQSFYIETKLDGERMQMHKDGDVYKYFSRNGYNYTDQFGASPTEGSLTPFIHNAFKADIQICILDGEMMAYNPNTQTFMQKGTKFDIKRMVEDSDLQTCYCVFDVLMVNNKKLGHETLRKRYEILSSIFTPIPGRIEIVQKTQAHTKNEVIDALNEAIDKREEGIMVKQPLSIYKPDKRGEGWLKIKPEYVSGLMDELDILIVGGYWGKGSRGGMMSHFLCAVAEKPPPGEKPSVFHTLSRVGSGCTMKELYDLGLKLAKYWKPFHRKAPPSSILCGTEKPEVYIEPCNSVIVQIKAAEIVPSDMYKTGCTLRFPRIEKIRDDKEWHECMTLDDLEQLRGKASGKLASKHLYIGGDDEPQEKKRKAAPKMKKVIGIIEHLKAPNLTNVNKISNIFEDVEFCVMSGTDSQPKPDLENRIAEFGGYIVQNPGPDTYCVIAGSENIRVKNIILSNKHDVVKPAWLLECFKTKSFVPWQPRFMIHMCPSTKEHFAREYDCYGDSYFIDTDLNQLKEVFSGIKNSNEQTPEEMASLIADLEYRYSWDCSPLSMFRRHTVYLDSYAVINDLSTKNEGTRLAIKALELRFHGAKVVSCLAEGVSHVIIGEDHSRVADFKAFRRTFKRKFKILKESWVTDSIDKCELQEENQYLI
UniProt O60294: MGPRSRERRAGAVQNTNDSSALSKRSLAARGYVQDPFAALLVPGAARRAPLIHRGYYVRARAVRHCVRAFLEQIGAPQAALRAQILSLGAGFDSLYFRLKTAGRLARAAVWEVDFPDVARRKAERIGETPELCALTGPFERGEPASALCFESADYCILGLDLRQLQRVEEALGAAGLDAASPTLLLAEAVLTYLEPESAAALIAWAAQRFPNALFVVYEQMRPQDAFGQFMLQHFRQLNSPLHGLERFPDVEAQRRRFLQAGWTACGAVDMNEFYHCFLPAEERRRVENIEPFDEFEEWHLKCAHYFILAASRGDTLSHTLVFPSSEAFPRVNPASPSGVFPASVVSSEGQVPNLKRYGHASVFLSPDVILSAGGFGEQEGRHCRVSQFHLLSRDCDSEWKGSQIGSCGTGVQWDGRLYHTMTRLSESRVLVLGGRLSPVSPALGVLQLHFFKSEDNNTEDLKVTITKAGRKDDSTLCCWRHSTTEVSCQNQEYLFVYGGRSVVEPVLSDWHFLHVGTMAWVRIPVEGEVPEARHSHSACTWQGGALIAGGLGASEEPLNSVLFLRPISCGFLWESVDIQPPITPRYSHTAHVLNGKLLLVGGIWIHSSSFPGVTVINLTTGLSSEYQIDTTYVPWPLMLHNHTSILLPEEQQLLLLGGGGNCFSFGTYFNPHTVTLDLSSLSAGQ
UniProt P62312: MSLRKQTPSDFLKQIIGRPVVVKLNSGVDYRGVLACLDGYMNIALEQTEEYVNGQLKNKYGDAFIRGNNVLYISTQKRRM
UniProt Q96BZ8: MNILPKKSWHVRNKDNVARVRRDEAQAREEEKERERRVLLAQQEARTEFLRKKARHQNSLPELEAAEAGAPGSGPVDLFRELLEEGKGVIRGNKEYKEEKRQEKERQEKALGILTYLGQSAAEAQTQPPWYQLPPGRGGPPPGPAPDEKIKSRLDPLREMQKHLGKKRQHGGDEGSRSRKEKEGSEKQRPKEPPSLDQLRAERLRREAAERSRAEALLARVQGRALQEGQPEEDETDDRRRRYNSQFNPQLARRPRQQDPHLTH
UniProt P48357: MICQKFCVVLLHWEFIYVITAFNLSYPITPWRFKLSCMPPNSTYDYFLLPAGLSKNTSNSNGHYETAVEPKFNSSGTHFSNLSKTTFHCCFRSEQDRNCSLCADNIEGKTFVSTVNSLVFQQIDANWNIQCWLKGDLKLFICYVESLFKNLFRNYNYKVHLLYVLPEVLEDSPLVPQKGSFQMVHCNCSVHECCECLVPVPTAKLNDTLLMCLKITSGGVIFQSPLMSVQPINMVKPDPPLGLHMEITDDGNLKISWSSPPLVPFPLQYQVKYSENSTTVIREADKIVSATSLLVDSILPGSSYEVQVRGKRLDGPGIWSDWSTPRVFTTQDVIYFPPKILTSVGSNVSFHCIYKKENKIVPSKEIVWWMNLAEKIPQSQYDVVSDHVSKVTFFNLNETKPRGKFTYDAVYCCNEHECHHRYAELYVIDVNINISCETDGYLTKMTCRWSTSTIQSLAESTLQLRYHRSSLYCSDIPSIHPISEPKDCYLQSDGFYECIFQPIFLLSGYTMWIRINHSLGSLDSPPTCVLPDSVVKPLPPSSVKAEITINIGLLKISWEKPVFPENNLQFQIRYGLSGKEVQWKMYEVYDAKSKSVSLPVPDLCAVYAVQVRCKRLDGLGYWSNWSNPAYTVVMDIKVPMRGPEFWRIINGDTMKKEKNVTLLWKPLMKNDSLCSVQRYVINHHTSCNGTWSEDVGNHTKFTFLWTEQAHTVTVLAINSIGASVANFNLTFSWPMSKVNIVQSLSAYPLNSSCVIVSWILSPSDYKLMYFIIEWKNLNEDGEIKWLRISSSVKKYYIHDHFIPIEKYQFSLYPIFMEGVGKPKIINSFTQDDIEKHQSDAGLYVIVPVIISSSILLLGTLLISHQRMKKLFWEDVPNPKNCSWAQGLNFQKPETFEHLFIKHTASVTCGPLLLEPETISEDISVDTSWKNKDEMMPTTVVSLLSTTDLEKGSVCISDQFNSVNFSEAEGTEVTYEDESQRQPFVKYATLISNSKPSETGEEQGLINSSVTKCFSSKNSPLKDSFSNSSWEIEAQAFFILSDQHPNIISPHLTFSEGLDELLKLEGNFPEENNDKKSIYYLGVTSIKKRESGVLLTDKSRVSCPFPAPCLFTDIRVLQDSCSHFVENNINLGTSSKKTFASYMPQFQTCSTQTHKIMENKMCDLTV

Assays:
Test in all cases: log2 fold change, soluble protein after heating vs DMSO (PISA); higher = thermal stabilisation; K562 lysate, 10 uM; active = over 0.2 and 3.5 SD of the protein, either way, in both replicates (recomputed)
[1] = compound: C#Cc1cccc(Nc2ncnc3cc(OCCOC)c(OCCOC)cc23)c1 [erlotinib]
Outline: (§1)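 Values give the log-two fold change in thermal stability against solvent controls, from duplicates. Crude K562 extract at 1 mg/mL protein, made by dounce homogenisation in PBS pH 7.4 with 1 mM MgCl2, was treated with 10 μM compound for 30 min. After 3 min heating across 48°C-58°C, aliquots were pooled, adjusted to 0.5% NP-40 at 4°C and centrifuged at 21,000xg for 90 min. The supernatant was measured by TMTpro 16plex LC-MS/MS with channel sums equalised.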

[2] = compound: C/C(=N\NC(=O)C1=CC(=CC=C1)S(=O)(=O)N2CCOCC2)/C3=C(C=CC(=C3)Cl)O
Outline: as §1

[3] = compound: C1=CC(=CC=C1C2=NC3=C(N2)C=C(C=C3)C(=O)N)OC4=CC=C(C=C4)Cl
Outline: as §1

[4] = compound: C1=CC2=C(C=CC(=C2)/C=C\3/C(=O)NC(=NCC4=CC=CS4)S3)N=C1
Outline: as §1

[5] = compound: C1=CC2=NC=CN=C2C=C1/C=C/3\C(=O)NC(=O)S3
Outline: as §1

[6] = compound: C1=CC=C(C=C1)C2=NC(=C(N2)C3=CC=NC=C3)C4=CC(=C(C=C4)Cl)O
Outline: as §1

[7] = compound: C1=CC=C2C(=C1)C3=NNC4=CC=CC(=C43)C2=O
Outline: as §1

[8] = compound: C1CCN(C1)C(=O)NC2=CC=CC(=C2)NC3=NC=C(C(=N3)NCCC4=CN=CN4)Br
Outline: as §1

[9] = compound: C1CN(CCC1(CC2=CC=C(C=C2)Cl)N)C3=NC=NC4=C3C=CN4
Outline: as §1

[10] = compound: C1COCCN1CCN2C3=CC=CC=C3N=C2NC(=O)C4=CC(=CC=C4)[N+](=O)[O-] [IRAK-1-4 Inhibitor I]
Outline: as §1

[11] = compound: C=CC(=O)N1CCC[C@@H](n2nc(-c3ccc(Oc4ccccc4)cc3)c3c(N)ncnc32)C1 [ibrutinib]
Outline: as §1

[12] = compound: CC(=O)c1cnc2ccc(-c3cc(Cl)c(O)c(Cl)c3)nc2c1N[C@H]1CC[C@H](CN(C)C)CC1
Outline: as §1

[13] = compound: CC(C)(C)Cn1c(N)nc2ccc(-c3[nH]c(C(C)(C)C)nc3-c3ccc(F)cc3)nc21 [ralimetinib]
Outline: as §1

[14] = compound: CC(C)(O)CC(=O)NCCn1ccc2ncnc(Nc3ccc(Oc4cccc(C(F)(F)F)c4)c(Cl)c3)c21
Outline: as §1

[15] = compound: CC(C)C1=C2N=C(C=C(N2N=C1)NCC3=CC=CC=C3)NCCCCCCN
Outline: as §1

[16] = compound: CC1=C(C(CC(=O)N1)C2=CC=C(C=C2)C(F)(F)F)C(=O)NC3=C(C=C4C(=C3)C=NN4)F
Outline: as §1

[17] = compound: CC1=C(C2=C(C=C1)C(=O)C3=CC=CC=C3N2CCCN)C
Outline: as §1

[18] = compound: CC1=C(C=C(C=C1)NC(=O)C2=CC(=CC=C2)C(C)(C)C#N)NC3=CC4=C(C=C3)N=CN(C4=O)C
Outline: as §1

[19] = compound: CC1=C(C=C(C=C1)NC(=O)C2=CC(=CC=C2)N(C)C)NC(=O)C3=CC=C(C=C3)O
Outline: as §1

[20] = compound: CC1=CC=C(C=C1)SC2=C3C=C(SC3=CN=C2)C(=O)N
Outline: as §1

Measured: log2 fold change

LTA4H (UniProt P09960)
inactive: [1] -0.022 | [2] 0.001 | [3] 0.004 | [4] -0.002 | [5] -0.009 | [6] 0 | [7] 0.041 | [8] 0.021 | [9] 0.016 | [10] 0.009 | [11] 0.025 | [12] 0.017 | [13] 0.013 | [14] -0.004 | [15] -0.009 | [16] -0.025 | [17] 0.012 | [18] -0.016 | [19] -0.01 | [20] -0.017

LRWD1 (UniProt Q9UFC0)
inactive: [1] -0.031 | [2] -0.002 | [3] 0.031 | [4] 0.032 | [5] 0.057 | [6] 0.016 | [7] -0.014 | [8] 0.002 | [9] 0.03 | [10] -0.02 | [11] 0.082 | [12] -0.009 | [13] 0.004 | [14] 0 | [15] 0.035 | [16] 0.015 | [17] -0.004 | [18] 0 | [19] 0.032 | [20] 0.04

LRRC8D (UniProt Q7L1W4)
inactive: [1] 0.003 | [2] 0.066 | [3] -0.03 | [4] -0.039 | [5] 0.035 | [6] -0.047 | [7] -0.04 | [8] -0.022 | [9] 0.074 | [10] 0.037 | [11] -0.001 | [12] 0.035 | [13] 0.021 | [14] -0.008 | [15] 0.001 | [16] -0.005 | [17] 0.026 | [18] -0.011 | [19] -0.003 | [20] -0.019

LSM3 (UniProt P62310)
inactive: [1] 0.008 | [2] -0.073 | [3] 0.055 | [4] -0.001 | [5] -0.001 | [6] -0.024 | [7] -0.069 | [8] 0.027 | [9] 0.035 | [10] 0.024 | [11] -0.016 | [12] -0.032 | [13] 0.002 | [14] -0.086 | [15] -0.003 | [16] -0.045 | [17] -0.008 | [18] 0.061 | [19] 0.002 | [20] -0.028

LIN9 isoform 2 (UniProt Q5TKA1)
inactive: [1] 0.04 | [2] 0.094 | [3] 0.074 | [4] -0.064 | [5] -0.012 | [6] -0.02 | [7] 0.023 | [8] -0.009 | [9] -0.034 | [10] 0.015 | [11] -0.095 | [12] -0.034 | [13] -0.031 | [14] 0.013 | [15] 0.097 | [16] -0.032 | [17] 0 | [18] -0.018 | [19] -0.033 | [20] -0.049

LRBA (UniProt P50851)
inactive: [1] -0.007 | [2] 0.007 | [3] -0.005 | [4] -0.01 | [5] -0.002 | [6] -0.008 | [7] -0.016 | [8] -0.013 | [9] 0.008 | [10] 0.009 | [11] 0 | [12] 0.004 | [13] 0.02 | [14] -0.024 | [15] -0.009 | [16] -0.003 | [17] 0.005 | [18] 0.016 | [19] 0.012 | [20] 0.008

LIG3 (UniProt P49916)
inactive: [1] -0.003 | [2] 0.027 | [3] -0.04 | [4] 0.009 | [5] -0.006 | [6] 0.011 | [7] -0.013 | [8] 0 | [9] -0.036 | [10] -0.035 | [11] -0.006 | [12] 0.007 | [13] 0.063 | [14] 0.023 | [15] -0.002 | [16] -0.018 | [17] 0.04 | [18] -0.015 | [19] 0.028 | [20] 0.015

LIG4 (UniProt P49917)
inactive: [1] 0.107 | [2] 0.014 | [3] -0.04 | [4] 0.028 | [5] 0.002 | [6] 0.024 | [7] -0.003 | [8] 0.009 | [9] -0.057 | [10] -0.001 | [11] 0.056 | [12] 0.174 | [13] -0.001 | [14] -0.023 | [15] 0.013 | [16] -0.016 | [17] -0.021 | [18] 0.004 | [19] 0.015 | [20] 0.109

LCMT2 (UniProt O60294)
inactive: [1] 0.129 | [2] 0.035 | [3] -0.012 | [4] -0.075 | [5] 0.042 | [6] -0.059 | [7] -0.014 | [8] 0.071 | [9] -0.003 | [10] -0.036 | [11] -0.02 | [12] 0.003 | [13] 0.083 | [14] -0.091 | [15] 0.218 | [16] 0.003 | [17] -0.078 | [18] 0.035 | [19] -0.035 | [20] 0.036

Quoted from the results shown (2 entries):
LIG4 (UniProt P49917)
inactive: [1] 0.107 | [2] 0.014 | [3] -0.04 | [4] 0.028 | [5] 0.002 | [6] 0.024 | [7] -0.003 | [8] 0.009 | [9] -0.057 | [10] -0.001 | [11] 0.056 | [12] 0.174 | [13] -0.001 | [14] -0.023 | [15] 0.013 | [16] -0.016 | [17] -0.021 | [18] 0.004 | [19] 0.015 | [20] 0.109

LCMT2 (UniProt O60294)
inactive: [1] 0.129 | [2] 0.035 | [3] -0.012 | [4] -0.075 | [5] 0.042 | [6] -0.059 | [7] -0.014 | [8] 0.071 | [9] -0.003 | [10] -0.036 | [11] -0.02 | [12] 0.003 | [13] 0.083 | [14] -0.091 | [15] 0.218 | [16] 0.003 | [17] -0.078 | [18] 0.035 | [19] -0.035 | [20] 0.036

Next part

LMO2 isoform 3 (UniProt P25791)
inactive: [1] -0.01 | [2] -0.027 | [3] -0.083 | [4] -0.025 | [5] 0.208 | [6] -0.124 | [7] -0.02 | [8] -0.124 | [9] -0.055 | [10] 0.028 | [11] -0.139 | [12] 0.052 | [13] 0.162 | [14] 0.071 | [15] -0.026 | [16] 0.049 | [17] 0.032 | [18] -0.11 | [19] -0.066 | [20] -0.001

LSM6 (UniProt P62312)
inactive: [1] -0.012 | [2] -0.068 | [3] 0.007 | [4] -0.007 | [5] 0.003 | [6] -0.013 | [7] 0.036 | [8] 0.022 | [9] 0.007 | [10] -0.002 | [11] 0.024 | [12] 0.003 | [13] 0.023 | [14] 0.012 | [15] 0.048 | [16] -0.02 | [17] 0.008 | [18] 0.005 | [19] -0.025 | [20] 0.012

LRCH4 (UniProt O75427)
inactive: [1] 0.006 | [2] 0.038 | [3] -0.021 | [4] -0.003 | [5] -0.2 | [6] 0.097 | [7] -0.026 | [8] 0.081 | [9] -0.112 | [10] 0.023 | [11] -0.088 | [12] -0.028 | [13] -0.005 | [14] -0.015 | [15] 0.072 | [16] -0.102 | [17] 0.041 | [18] 0.03 | [19] 0.137 | [20] -0.048

LINS1 (UniProt Q8NG48)
inactive: [1] 0.094 | [2] 0.002 | [3] -0.057 | [4] -0.042 | [5] 0.08 | [6] -0.035 | [7] 0.007 | [8] 0.003 | [9] 0 | [10] -0.013 | [11] 0.103 | [12] -0.006 | [13] 0.079 | [14] -0.07 | [15] 0.379 | [16] 0.106 | [17] 0.124 | [18] 0.11 | [19] 0.067 | [20] 0.11

LENG1 (UniProt Q96BZ8)
inactive: [1] -0.019 | [2] -0.052 | [3] -0.025 | [4] -0.011 | [5] -0.005 | [6] -0.025 | [7] 0.028 | [8] -0.054 | [9] -0.08 | [10] 0.095 | [11] 0.03 | [12] 0.015 | [13] -0.13 | [14] -0.05 | [15] -0.111 | [16] -0.071 | [17] -0.005 | [18] 0.036 | [19] 0.075 | [20] -0.015

LRRC4B (UniProt Q9NT99)
inactive: [1] 0.01 | [2] -0.005 | [3] -0.027 | [4] -0.114 | [5] -0.148 | [6] 0.011 | [7] 0.055 | [8] -0.027 | [9] -0.009 | [10] 0.085 | [11] 0.032 | [12] 0.063 | [13] -0.015 | [14] -0.079 | [15] -0.017 | [16] 0.101 | [17] 0.098 | [18] 0.016 | [19] 0.077 | [20] 0.04

LEPR (UniProt P48357)
inactive: [1] -0.006 | [2] -0.016 | [3] 0.001 | [4] -0.027 | [5] 0.001 | [6] -0.071 | [7] 0.022 | [8] -0.046 | [9] 0.115 | [10] 0.078 | [11] -0.005 | [12] 0.023 | [13] 0 | [14] -0.025 | [15] -0.012 | [16] 0.013 | [17] -0.035 | [18] -0.047 | [19] 0.051 | [20] 0.084
